Measurements as given in the supplement of paper PMC11732987, “Enantioselective OTUD7B fragment discovery through chemoproteomics screening and high-throughput optimisation” (Communications Chemistry, 2025).
The list shows a part of the results. The data scatter; read single values as rough.

The chains behind the UniProt entries cited, without tags or fusion partners. Where a name states a change or a piece, a line headed by the entry shows the natural chain unless it says otherwise.
UniProt O14802: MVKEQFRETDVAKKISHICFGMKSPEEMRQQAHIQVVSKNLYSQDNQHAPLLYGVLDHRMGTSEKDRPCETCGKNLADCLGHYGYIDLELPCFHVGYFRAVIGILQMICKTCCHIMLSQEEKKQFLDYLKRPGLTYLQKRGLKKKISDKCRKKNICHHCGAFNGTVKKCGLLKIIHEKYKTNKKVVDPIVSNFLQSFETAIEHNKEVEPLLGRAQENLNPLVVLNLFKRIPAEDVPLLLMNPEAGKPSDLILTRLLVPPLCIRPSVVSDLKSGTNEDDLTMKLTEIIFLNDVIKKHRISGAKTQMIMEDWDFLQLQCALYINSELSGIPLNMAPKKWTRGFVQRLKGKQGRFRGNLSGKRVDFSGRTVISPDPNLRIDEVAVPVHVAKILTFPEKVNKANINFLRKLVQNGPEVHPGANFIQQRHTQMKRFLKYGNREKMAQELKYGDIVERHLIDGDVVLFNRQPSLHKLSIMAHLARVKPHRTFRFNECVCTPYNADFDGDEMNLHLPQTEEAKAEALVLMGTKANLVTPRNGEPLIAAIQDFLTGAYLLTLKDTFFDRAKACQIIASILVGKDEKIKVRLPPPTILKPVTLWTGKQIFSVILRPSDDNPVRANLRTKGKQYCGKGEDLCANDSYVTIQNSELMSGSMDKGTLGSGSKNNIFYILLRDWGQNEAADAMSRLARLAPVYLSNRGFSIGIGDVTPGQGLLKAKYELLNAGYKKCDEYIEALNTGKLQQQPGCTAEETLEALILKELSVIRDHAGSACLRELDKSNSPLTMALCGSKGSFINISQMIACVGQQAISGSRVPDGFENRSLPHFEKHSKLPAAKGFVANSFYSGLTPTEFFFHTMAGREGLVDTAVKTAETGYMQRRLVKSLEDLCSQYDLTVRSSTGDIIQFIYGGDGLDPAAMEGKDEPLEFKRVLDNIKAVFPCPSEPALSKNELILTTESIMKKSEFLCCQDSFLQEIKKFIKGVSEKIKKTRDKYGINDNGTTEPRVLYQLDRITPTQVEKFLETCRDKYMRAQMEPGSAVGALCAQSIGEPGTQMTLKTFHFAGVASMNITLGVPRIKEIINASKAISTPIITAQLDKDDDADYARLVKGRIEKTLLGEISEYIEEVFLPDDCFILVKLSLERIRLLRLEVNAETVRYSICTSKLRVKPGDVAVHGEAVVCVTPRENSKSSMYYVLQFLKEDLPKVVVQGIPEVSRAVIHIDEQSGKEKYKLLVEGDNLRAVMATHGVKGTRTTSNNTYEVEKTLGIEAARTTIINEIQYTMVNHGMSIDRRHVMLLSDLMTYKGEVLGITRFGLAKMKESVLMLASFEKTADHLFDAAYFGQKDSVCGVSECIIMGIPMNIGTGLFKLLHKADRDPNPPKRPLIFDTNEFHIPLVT

Target: T1, POLR3A C1037 (UniProt O14802)
T1 sequence (whole entry): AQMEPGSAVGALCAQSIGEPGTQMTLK
Assay: log2 mean competition ratio of IA-DTB cysteine labelling (DMSO/compound) (log2 ratio); higher = stronger cysteine engagement by compound
Details: 50 µM; treatment time: 4 h; cell line lysate: HEK293T
Experimental: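 IA-DTB competitive cysteine chemoproteomics in HEK293T RIPA lysate. Lysates were treated with compound 29 or 30 at 50 or 200 µM for 4 h, then IA-DTB (500 µM, 1 h), trypsin-digested, NeutrAvidin-enriched and analysed by diaPASEF. Competition ratio = intensity DMSO / intensity compound (n=4 treated, n=64 DMSO); binding: mean log2 CR ≥ 1 and p ≤ 0.05 plus QC filters. Target is the cysteine site.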

SMILES	log2 mean competition ratio
O=C(CCl)N[C@H]1CCCc2ccccc21	0.317
O=C(CCl)N[C@@H]1CCCc2ccccc21	0.307

Same assay, conditions: 200 µM; treatment time: 4 h; cell line lysate: HEK293T

SMILES	log2 mean competition ratio
O=C(CCl)N[C@H]1CCCc2ccccc21	-0.286
O=C(CCl)N[C@@H]1CCCc2ccccc21	-0.19
